Data as given in patent US5132429A, “Benzotriazole derivatives and fluorescence-emitting reagents thereof” (priority 1988, dated 1992).

Biological target: α1-AG (α1-acid glycoprotein)
Experiment: Binding constant of basic drug to α1-AG by displacement of compound 1 (fluorescence probe method, Klotz formula)
Conditions: 0.1M phosphoric acid buffer pH 7.4; 3×10^-6 M α1-AG; compound 1 as probe
Protocol: Two different kinds of solutions, one containing α1 -AG and a compound of this invention listed above, the other containing α1 -AG, the compound of this invention, and a drug, are prepared to measure fluorescence intensity at the excitation. fluorescence wavelength, as shown in Table 2. According to the working curve made beforehand, the binding rate of the compound to α1 -AG in each solution is determined and the binding constant of a drug to α1-AG is calculated from the difference between the binding rates in the presence and the absence of a drug.
In the fluorescence cell made of quartz with a plug was placed the buffer solution of 0.1M phosphoric acid (2 ml) which pH is 7.4 and containig 1×10^-4 M α1 -AG, to which 5×10^-4 M aqueous solution of the compound 1 was added by 2 μl each with a microcylinder, which was prepared by dissolving about 3 mg of the compound 1 in 1N hydrochloric acid (1 ml), followed by diluting with water to make the total volume 200 times, and the resulting solution was mixed fully to determine fluorescence intensity at 508 nm (excitation wavelength: 418 nm).
For the buffer solution of 0.1M phosphoric acid (2 ml) which pH is 7.4 and containing 3×10^-6 M α1 -AG, the same procedure as in Example 1 was performed.
As for the other basic drugs shown in Table 3, binding constant were obtained according to the same manner as in Example 11.

SMILES | log Kb (binding constant)
CN1CCN(CCCN2c3ccccc3Sc3ccc(Cl)cc32)CC1 [prochlorperazine] | 6.24
CC(C)NCC(O)COc1cccc2ccccc12 (centres unmarked) [propranolol] | 5.85
